For the assay, the target named is T1, MYC-tagged wild-type SMOC2 (SPARC-related modular calcium binding 2) (human) (UniProt Q9H3U7).
T1 sequence: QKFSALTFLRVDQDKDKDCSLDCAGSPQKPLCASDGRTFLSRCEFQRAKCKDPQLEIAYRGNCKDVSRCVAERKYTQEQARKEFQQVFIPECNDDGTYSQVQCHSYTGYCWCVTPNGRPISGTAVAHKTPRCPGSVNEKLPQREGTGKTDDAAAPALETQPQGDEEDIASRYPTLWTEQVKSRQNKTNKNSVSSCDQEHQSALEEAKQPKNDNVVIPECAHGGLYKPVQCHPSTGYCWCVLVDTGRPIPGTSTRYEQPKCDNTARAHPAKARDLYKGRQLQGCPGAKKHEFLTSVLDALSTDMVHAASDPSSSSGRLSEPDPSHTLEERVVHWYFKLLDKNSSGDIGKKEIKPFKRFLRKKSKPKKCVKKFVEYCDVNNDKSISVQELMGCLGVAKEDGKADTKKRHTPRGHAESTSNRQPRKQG
Kind of assay: co-IP.

Results are given in words; binding and its absence hold for the method and conditions named. Binding seen in cells or lysates may run through a third protein. Sequences can lack the tags named with a protein.

For the substance HA-tagged BMPR1A (receptor), the binding entry is “no binding”.

The record behind these values is paper doi:10.1101/2020.01.27.921825.
